# In patent US7183300B2, “Inhibitors of HIV-1 capsid formation: substituted aryl aminomethyl thiazole ureas and analogues thereof” (priority 2004, dated 2007):
# Some entries share one result that the patent states for a list of compounds.
# Molecular target: T1, HIV-1 capsid protein (Human immunodeficiency virus type 1 group M subtype B, UniProt P12493)
# T1 construct: aqueous solutions containing recombinant, ^15N-labeled HIV-1 capsid protein
# Format: binding
# Settings: recombinant 15N-labeled HIV-1 capsid protein
row,SMILES,binding to the HIV-1 capsid protein (HSQC chemical shift perturbation)
1,"CC(C)N(C)Cc1csc(NC(=O)Nc2ccc(F)c(C(F)(F)F)c2)n1 [Compound 25, 1-(4-fluoro-3-(trifluoromethyl)phenyl)-3-(4-((isopropyl(methyl)amino)methyl)thiazol-2-yl)urea]",bind to the HIV-1 capsid protein
2,"CCC(C)N(C)Cc1csc(NC(=O)Nc2ccc(C)c(C(F)(F)F)c2)n1 (stereo not shown) [Compound 33, 1-(4-((sec-butyl(methyl)amino)methyl)thiazol-2-yl)-3-(4-methyl-3-(trifluoromethyl)phenyl)urea]",bind to the HIV-1 capsid protein
3,"Cc1ccc(NC(=O)Nc2nc(CN(C)C(C)C)cs2)cc1C(F)(F)F [Compound 17, 1-(4-((isopropyl(methyl)amino)methyl)thiazol-2-yl)-3-(4-methyl-3-(trifluoromethyl)phenyl)urea]",bind to the HIV-1 capsid protein
4,"CCN(CC)Cc1csc(NC(=O)Nc2ccc(C)c(Cl)c2)n1 [Compound 5, 1-(3-chloro-4-methylphenyl)-3-(4-((diethylamino)methyl)thiazol-2-yl)urea]",bind to the HIV-1 capsid protein
5,"Cc1ccc(NC(=O)Nc2nc(CN(C)CC(N)=O)cs2)cc1Cl [Compound 9, 1-(4-(((2-amino-2-oxoethyl)(methyl)amino)methyl)thiazol-2-yl)-3-(3-chloro-4-methylphenyl)urea]",bind to the HIV-1 capsid protein
6,"COCCN(C)Cc1csc(NC(=O)Nc2ccc(C)c(Cl)c2)n1 [Compound 8, 1-(3-chloro-4-methylphenyl)-3-(4-(((2-methoxyethyl)(methyl)amino)methyl)thiazol-2-yl)urea]",bind to the HIV-1 capsid protein
7,"CC(C)N(C)Cc1csc(NC(=O)Nc2ccc(C(F)(F)F)cc2)n1 [Compound 30, 1-(4-(trifluoromethyl)phenyl)-3-(4-((isopropyl(methyl)amino)methyl)thiazol-2-yl)urea]",bind to the HIV-1 capsid protein
8,"Cc1ccc(NC(=O)Nc2nc(CN(C)C3CC3)cs2)cc1C(F)(F)F [Compound 32, 1-(4-((cyclopropyl(methyl)amino)methyl)thiazol-2-yl)-3-(4-methyl-3-(trifluoromethyl)phenyl)urea]",bind to the HIV-1 capsid protein
9,"Cc1ccc(NC(=O)Nc2nc(CNC(C)C)cs2)cc1Cl [Compound 24, 1-(3-chloro-4-methylphenyl)-3-(4-((isopropylamino)methyl)thiazol-2-yl)urea]",bind to the HIV-1 capsid protein
10,"CC(C)N(C)Cc1csc(NC(=O)Nc2ccc(Cl)c(C(F)(F)F)c2)n1 [Compound 26, 1-(4-chloro-3-(trifluoromethyl)phenyl)-3-(4-((isopropyl(methyl)amino)methyl)thiazol-2-yl)urea]",bind to the HIV-1 capsid protein
11,"CC(C)N(C)Cc1csc(NC(=O)Nc2cccc(Cl)c2)n1 [Compound 21, 1-(3-chlorophenyl)-3-(4-((isopropyl(methyl)amino)methyl)thiazol-2-yl)urea]",bind to the HIV-1 capsid protein
12,"CC#Cc1cc(NC(=O)Nc2nc(CN(C)C(C)C)cs2)ccc1C [Compound 36, 1-(4-((isopropyl(methyl)amino)methyl)thiazol-2-yl)-3-(4-methyl-3-(prop-1-ynyl)phenyl)urea]",bind to the HIV-1 capsid protein
13,"Cc1ccc(NC(=O)Nc2nc(CN(C)C)cs2)cc1Cl [Compound 4, 1-(3-chloro-4-methylphenyl)-3-(4-((dimethylamino)methyl)thiazol-2-yl)urea]",bind to the HIV-1 capsid protein
14,"Cc1ccc(NC(=O)Nc2nc(CN(C)C(C)C)cs2)cc1F [Compound 13, 1-(3-fluoro-4-methylphenyl)-3-(4-((isopropyl(methyl)amino)methyl)thiazol-2-yl)urea]",bind to the HIV-1 capsid protein
15,"Cc1ccc(NC(=O)Nc2nc3c(s2)CCN(C)C3)cc1Cl [Compound 39, 1-(3-chloro-4-methylphenyl)-3-(5-methyl-4,5,6,7-tetrahydrothiazolo[4,5-c]pyridin-2-yl)urea]",bind to the HIV-1 capsid protein
16,"Cc1ccc(NC(=O)Nc2nc(CN(C)C(C)C)cs2)cc1I [Compound 15, 1-(3-iodo-4-methylphenyl)-3-(4-((isopropyl(methyl)amino)methyl)thiazol-2-yl)urea]",bind to the HIV-1 capsid protein
17,"CC(C)N(C)Cc1csc(NC(=O)Nc2cccc3nsnc23)n1 [Compound 42, 1-(benzo[c][1,2,5]thiadiazol-4-yl)-3-(4-((isopropyl(methyl)amino)methyl)thiazol-2-yl)urea]",bind to the HIV-1 capsid protein
18,"Cc1ccc(NC(=O)Nc2nc(CN3CCCCC3)cs2)cc1Cl [Compound 38, 1-(3-chloro-4-methylphenyl)-3-(4-(piperidin-1-ylmethyl)thiazol-2-yl)urea]",bind to the HIV-1 capsid protein
19,"Cc1ccc(NC(=O)Nc2nc(CN(C)CC(C)C)cs2)cc1Cl [Compound 10, 1-(3-chloro-4-methylphenyl)-3-(4-((isobutyl(methyl)amino)methyl)thiazol-2-yl)urea]",bind to the HIV-1 capsid protein
20,"Cc1ccc(NC(=O)Nc2nc(CN(C)C3CCC3)cs2)cc1C(F)(F)F [Compound 31, 1-(4-((cyclobutyl(methyl)amino)methyl)thiazol-2-yl)-3-(4-methyl-3-(trifluoromethyl)phenyl)urea]",bind to the HIV-1 capsid protein
21,"COc1cc(C)ccc1NC(=O)Nc1nc(CN(C)C(C)C)cs1 [Compound 43, 1-(4-((isopropyl(methyl)amino)methyl)thiazol-2-yl)-3-(2-methoxy-4-methylphenyl)urea]",bind to the HIV-1 capsid protein
22,"COc1cc(Cl)ccc1NC(=O)Nc1nc(CN(C)C(C)C)cs1 [Compound 44, 1-(4-chloro-2-methoxyphenyl)-3-(4-((isopropyl(methyl)amino)methyl)thiazol-2-yl)urea]",bind to the HIV-1 capsid protein
23,"CC(C)N(C)Cc1csc(NC(=O)Nc2cccc(Br)c2)n1 [Compound 22, 1-(3-bromophenyl)-3-(4-((isopropyl(methyl)amino)methyl)thiazol-2-yl)urea]",bind to the HIV-1 capsid protein
24,"CC(C)N(C)Cc1csc(NC(=O)Nc2cccc(C(F)(F)F)c2)n1 [Compound 29, 1-(3-(trifluoromethyl)phenyl)-3-(4-((isopropyl(methyl)amino)methyl)thiazol-2-yl)urea]",bind to the HIV-1 capsid protein
25,"CC(C)N(C)Cc1csc(NC(=O)Nc2ccc(C#N)c(Cl)c2)n1 [Compound 18, 1-(3-chloro-4-cyanophenyl)-3-(4-((isopropyl(methyl)amino)methyl)thiazol-2-yl)urea]",bind to the HIV-1 capsid protein
26,"Cc1ccc(NC(=O)Nc2nc(CN(C)C(C)C)cs2)cc1Br [Compound 14, 1-(3-bromo-4-methylphenyl)-3-(4-((isopropyl(methyl)amino)methyl)thiazol-2-yl)urea]",bind to the HIV-1 capsid protein
27,"CCC#Cc1cc(NC(=O)Nc2nc(CN(C)C(C)C)cs2)ccc1C [Compound 37, 1-(3-(but-1-ynyl)-4-methylphenyl)-3-(4-((isopropyl(methyl)amino)methyl)thiazol-2-yl)urea]",bind to the HIV-1 capsid protein
28,"CC(C)N(C)Cc1csc(NC(=O)Nc2ccc(C#N)c(C(F)(F)F)c2)n1 [Compound 27, 1-(4-cyano-3-(trifluoromethyl)phenyl)-3-(4-((isopropyl(methyl)amino)methyl)thiazol-2-yl)urea]",bind to the HIV-1 capsid protein
